Laboratory results reported in US5994361A, “Substituted purinyl derivatives with immunomodulating activity” (priority 1995, dated 1999).
At least one structure is not confirmed: it was looked up by name or label, or the drawing left a doubt.

Columns and labels:
[1] = test system: MC38 colon adenocarcinoma; assay: Compound #1 with 5FU against colon adenocarcinoma (Example 95); assay type: in vivo, C57/BL mice
Protocol: C57/BL mice 6-8 weeks old (n=7-9/gr) were injected with 3×10^5 MC38 colon adenocarcinoma cells s.c. on day 0. On day 7, tumor-bearing mice were randomized and injected with 5FU at 20 mg/kg either alone or in combination with levamisole at 20 mg/kg i.p. or with compound #1 at 25 and 50 mg/kg i.p. over a four week period. During this period, animals were treated for 5 consecutive days, untreated for 2 days, and treated again for 5 consecutive days per week for 4 weeks.

[2] = test system: DA-3 mammary carcinoma; assay: Tumor outgrowth of breast carcinoma, with cyclophosphamide (Example 92); assay type: in vivo, Balb/C mice; conditions: in combination with cyclophosphamide, mouse mammary carcinoma
Protocol: Balb/C Mice (n-5/Gr) were used along with DA-3 mammary carcinoma cell line. The mice were treated from -2 to 13 days. Animals were monitored for tumor takes/tumor size and body weights for three weeks from Day 0 until Day 21. D0 was the day of tumor cell inoculation and D21 was the day of experiment termination.
(§1) Parameters of effect were measured by inhibition of tumor outgrowth and growth rate [tumors measured along the longest axis (length) and the perpendicular shortest axis (width) and the tumor volumes (T.V.±S.E.) was calculated by the formula T.V.=length (cm)×(width cm)^2 /2.] assessment of body weight loss.
The statistical significance of difference between tumor takes and tumor sizes of control-untreated and drug-treated groups is estimated using the Chi-square and Student's t tests respectively with significance determined at n<0.05.
The mice were divided into the following 5 groups:
Gr.1--Normal Saline (0.2 ml/mouse i.p. starting at D2)
Gr.2--CY (100 mg/kg single bolus i.v. at D0)
Gr.3--Compound #1 (25 mg/kg i.p. starting at D2)
Gr.4--Compound #1 (50 mg/kg i.p. starting at D2)
Gr.5--CY (100 mg/kg i.v. at D0+compound #1 50 mg/kg i.p. starting at D2)

[3] = test system: blood cells; assay: Immunophenotyping on blood cells of compound #1 treated mice; design: species or system C57/BLJ6 mice; conditions: in vivo
Protocol: After in vivo drugs analysis, the drugs were evaluated on whole blood for drug stability and toxicity. Furthermore, in vivo/ex vivo analysis was performed on normal and cyclophosphamide immunosuppressed animals plus 5Fu-treated animals. Cell immunophenotyping was performed on mouse-treatedblood and spleen. The following cell surface antigens were analyzed:
CD3 (all T cells), CD4 (T helper/inducer, binds class II-restricted T cells), CD8a (cytotoxic T cells, CTL adhesion), CD11a (T, B, NK, some stem cells, CTL adhesion anti LFA-1α), MAC-1 (monocyte/macrophage), NK (natural killer cells), Ly5 (B cells), CD45 (all leukocytes, protein tyrosine phosphates), and TCR (T cell receptor).
C57/BLJ6 mice (6-8 weeks old) were injected daily for 4 consecutive days, sacrificed at day 5 and immunophenotyping was performed on blood and spleen cells.
The cells were washed twice in PBS, resuspended in 1 ml of RPMI 2% FBS, and incubated for 45 min. on ice with monoclonal antibody. The cells were washed once, fixed with 1% paraformaldehyde, then analyzed using XL Coulter® counter.

[4] = test system: DA-3 mammary carcinoma; assay: Compound #1 with Cytoxan 28 mg/kg against DA-3 mammary carcinoma, tumor sizes (Example 94); assay type: in vivo, Balb/c mice; conditions: compound #1 50 mg/kg + CTX 28 mg/kg; from day 11 until day 30
Protocol: as §1
In another experiment, the CTX treatment was prolonged. Balb/c mice were injected s.c. with 5×10^5 DA-3 tumor cells at day 0. At day 4 when established tumors appeared, tumor-bearing animals were randomized (n=11/gr.) and injected with CTX (at 28 mg/kg) i.v. bolus injections at days 4, 11, and 18. […]

[5] = test system: T cell activity (ConA), spleen mononuclear leukocytes; assay: Mitogenic proliferation on spleen cell suspension, T (ConA); assay type: cell-based, C57BL-6 mice; conditions: in vitro
Source text: Mitogenic lectin (mitogen) is a protein which binds and cross-links specific cells surface carbohydrate determinants, and will polyclonally stimulate lymphoid cells. Lymphocyte activation by either antigens or mitogens results in intracellular changes and the subsequent development into a lymphoblast. Mitogenic stimulation of lymphocytes in vitro is believed to mimic the series of events which occur in vivo following their stimulation by specific antigens. PHA, ConA, and PWM, LPS mitogens can be used as a measurement of T cell and B cell activity, respectively.
Briefly, spleen mononuclear leukocytes from C57BL-6 mice were incubated in the presence or absence of mitogens with or without tested drugs. After 72 hours or 5 days, ^3 H thymidine incorporation was recorded as an indication of cell transformation and proliferation.
100 μl of a suspension of 2×10^6 cells/ml (2×10^5 cells/well) were incubated in presence of PHA or ConA or PWM or LPS at the following concentrations:
PHA=0.01% final concentration-0.001%
Cells were incubated in presence or absence of drugs for 72 hours. 0.5 or 1 μCi of tritiated thymidine (^3 H) was added per well the last 18 or 6 hours of incubation respectively. Cells were harvested and counted on a Beta counter.

[6] = test system: DA-3 mammary carcinoma; assay: Compound #1 with Cytoxan 20 mg/kg against established DA-3 mammary carcinoma (Example 93); assay type: in vivo; conditions: compound #1 50 mg/kg i.p. daily + CTX 20 mg/kg i.v.; from day 9 until day 18
Protocol: Combination of compound #1 (25 and 50 mg/kg i.p. daily) plus CTX (20 mg/kg i.v. single bolus) was evaluated against day 4 established DA-3 tumors.

SMILES: CN(C)c1ncnc2c1ncn2CCCCCOC(=O)N[C@H](CCCNC(=N)N)C(=O)O [Compound #1, N,N-Dimethylaminopurinyl Pentoxycarbonyl D-Arginine]
- anti-tumor effect compared with 5FU+Levamisole ([1]; 5FU + compound #1 at 50 mg/kg): markedly better than that of 5FU+Levamisole
- anti-tumor effect ([1]; compound #1 50 and 25 mg/kg + 5FU 20 mg/kg, compared to control untreated group): significant dose-dependent anti-tumor effect
- tumor outgrowth (conclusion) ([1]; in combination with 5FU, mouse colon adenocarcinoma): appears to inhibit tumor outgrowth
- tumor outgrowth (conclusion) [2]: appears to inhibit tumor outgrowth
- number of CTL's (conclusion) [3]: increases the number of CTL's
- anti-tumor effect [4]: highly statistically significant (p,0.001-p<0.005) anti-tumor effect
- activation of T cells and B cells (conclusion) [5]: appears to activate T cells (including CTL's) and B cells
- anti-tumor effect [6]: significant but transient effect
